The record followed here is the supplement of paper PMC4635364.

Assay [1] concerns ReNCell VM. Description: neuronal differentiation score (DCX+ cell fraction vs untreated, manual image score) (score (-3 to 3)); higher = more neuronal differentiation. The settings on record: 2 uM, 2 weeks.
The test system of assay [2] is ReNCell VM. In words: dopaminergic neuron differentiation score (TH+ cell fraction vs untreated, manual image score) (score (0 to 3)); higher = more TH+ dopaminergic neuron differentiation. The settings on record: 2 uM, 4 weeks, BDNF 10 ng/ml + GDNF 10 ng/ml.

Counter-ions that a name gives are not always drawn. Some of the results follow. This data set is noisy: repeats of one test often differ as much as different tests do.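 Cells: ReNCell VM human fetal ventral-midbrain neural progenitors, differentiated mitogen-free. Blinded raters compared doublecortin-stained (early neurons) or tyrosine hydroxylase-stained (dopaminergic neurons) images with untreated wells, where 0 means no change. After repeats and both raters were averaged, compounds scoring 2 or above became hits for retesting.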

As for `CC1(C)Oc2ccc(C#N)cc2[C@H](N2CCCC2=O)[C@H]1O` [Cromakalim], in assay [1] (library: Tocriscreen), the neuronal differentiation score is inactive: 0. Further, the “dopaminergic neuron differentiation score” value in assay [2] (library: Tocriscreen) is inactive: 0.

In the case of `OC[C@H]1O[C@@H](n2cnc3c(NCc4ccco4)ncnc32)[C@H](O)[C@@H]1O`, in assay [1] (library: Spectrum), the neuronal differentiation score was inactive: 0. In addition, the “dopaminergic neuron differentiation score” value in assay [2] (library: Spectrum) is inactive: 0.

Consider `CCC(=O)OCN1C(=O)C=CC1=O`, for which, in assay [1] (library: Tocriscreen), the neuronal differentiation score was inactive: 0. In assay [2] (library: Tocriscreen), the “dopaminergic neuron differentiation score” value is inactive: 0.

As to `COc1ccc([C@H]2COc3c(ccc(O)c3OC)C2)c(OC)c1O`, in assay [1] (library: Spectrum), the neuronal differentiation score was inactive: 0. Moreover, in assay [2] (library: Spectrum), the “dopaminergic neuron differentiation score” value was inactive: 0.

`CC(=O)O[C@@H]1C[C@@]2(C)C(CC[C@@H]2C(C)=O)C2CCC3=CC(=O)CC[C@]3(C)C21` (some centres undefined): the neuronal differentiation score in assay [1] (library: Spectrum) was inactive: 0. The “dopaminergic neuron differentiation score” value in assay [2] (library: Spectrum) is inactive: 0.

On to `O=C1C=CC(=O)C2=C1C1c3ccccc3C2c2ccccc21`, for which the neuronal differentiation score in assay [1] (library: Tocriscreen) is inactive: 0. Besides, the “dopaminergic neuron differentiation score” value in assay [2] (library: Tocriscreen) was inactive: 0.

Take `Cc1ccccc1OCC(O)CO` (centres undefined) [Mephenesin]: the neuronal differentiation score in assay [1] (library: Prestwick) is inactive: 0. The “dopaminergic neuron differentiation score” value in assay [2] (library: Prestwick) is inactive: 0.

For the compound `Oc1ccc([C@H]2Oc3cc(O)cc(O)c3C[C@H]2O)cc1`, in assay [1] (library: Spectrum), the neuronal differentiation score is inactive: 0. Moreover, the “dopaminergic neuron differentiation score” value in assay [2] (library: Spectrum) was inactive: 0.

Take `C/C=C(/C(=C/C)c1ccc(O)cc1)c1ccc(O)cc1` [Dienestrol]: in assay [1] (library: Prestwick), the neuronal differentiation score is inactive: 0. Moreover, the “dopaminergic neuron differentiation score” value in assay [2] (library: Prestwick) is inactive: 0.

For the compound `CC1=CC(=O)c2ccccc2C1=O`, the neuronal differentiation score in assay [1] (library: Spectrum) is inactive: 0. Besides, the “dopaminergic neuron differentiation score” value in assay [2] (library: Spectrum) was inactive: 0.

As to `CCOC(=O)c1c(C)cc(O)cc1O`, the neuronal differentiation score in assay [1] (library: Spectrum) is inactive: 0. Also, the “dopaminergic neuron differentiation score” value in assay [2] (library: Spectrum) was inactive: 0.

In the case of `CNCCCN1c2ccccc2CCc2ccccc21`, the neuronal differentiation score in assay [1] (library: Spectrum) is inactive: 0. Further, in assay [2] (library: Spectrum), the “dopaminergic neuron differentiation score” value was inactive: 0.

Turning to `Cc1cc(NS(=O)(=O)c2ccc(N)cc2)no1` [Sulfamethoxazole], in assay [1] (library: Prestwick), the neuronal differentiation score was inactive: 0. The “dopaminergic neuron differentiation score” value in assay [2] (library: Prestwick) was inactive: 0.

Consider `CC[C@H](c1ccc(O)cc1)[C@@H](CC)c1ccc(O)cc1`, for which the neuronal differentiation score in assay [1] (library: Spectrum) was inactive: 0. In addition, the “dopaminergic neuron differentiation score” value in assay [2] (library: Spectrum) was inactive: 0.

For the compound `CC(C)NNC(=O)c1ccncc1` [Iproniazid phosphate], the neuronal differentiation score in assay [1] (library: LOPAC) was inactive: 0. Further, in assay [2] (library: LOPAC), the “dopaminergic neuron differentiation score” value was inactive: 0.

On to `O=C(Nc1ccncc1)c1cc([N+](=O)[O-])ccc1Cl`, for which, in assay [1] (library: Tocriscreen), the neuronal differentiation score is inactive: 0. The “dopaminergic neuron differentiation score” value in assay [2] (library: Tocriscreen) is inactive: 0.

Turning to `O=C(O)[C@H]1O[C@@H](Oc2cc3oc(-c4ccccc4)cc(=O)c3c(O)c2O)[C@H](O)[C@@H](O)[C@@H]1O`, the neuronal differentiation score in assay [1] (library: Spectrum) was inactive: 0. Further, the “dopaminergic neuron differentiation score” value in assay [2] (library: Spectrum) is inactive: 0.

As to `Cc1cc(=O)oc2cc(O)ccc12`, the neuronal differentiation score in assay [1] (library: Spectrum) is inactive: 0. In addition, the “dopaminergic neuron differentiation score” value in assay [2] (library: Spectrum) is inactive: 0.

On to `COc1ccccc1OCC(O)CO` (centres undefined) [Guaifenesin], for which, in assay [1] (library: Prestwick), the neuronal differentiation score was inactive: 0. In assay [2] (library: Prestwick), the “dopaminergic neuron differentiation score” value is inactive: 0.

As for `COC(=O)Nc1nc2cc(C(=O)c3ccc(F)cc3)ccc2[nH]1` [Flubendazol], the neuronal differentiation score in assay [1] (library: Prestwick) was inactive: 0. In addition, the “dopaminergic neuron differentiation score” value in assay [2] (library: Prestwick) is inactive: 0.

On to `C=C[C@H]1[C@H](O[C@@H]2O[C@H](CO)[C@@H](O)[C@H](O)[C@H]2O)OC=C2C(=O)NCC[C@H]21` [Bakankosine], for which the neuronal differentiation score in assay [1] (library: Phytochemical) is inactive: -1. Moreover, the “dopaminergic neuron differentiation score” value in assay [2] (library: Phytochemical) is inactive: 0.

Take `C[C@H]1[C@H](OC(=O)CCC(=O)O)O[C@@H]2O[C@@]3(C)CC[C@H]4[C@H](C)CC[C@@H]1[C@@]24OO3`: the neuronal differentiation score in assay [1] (library: Spectrum) is inactive: 0. In assay [2] (library: Spectrum), the “dopaminergic neuron differentiation score” value was inactive: 0.

As for `CCCCCC[C@@H]([C@@H](C)O)n1cnc2c(N)ncnc21` [erythro-9-(2-Hydroxy-3-nonyl)adenine hydrochloride], the neuronal differentiation score in assay [1] (library: LOPAC) is inactive: 0. Moreover, the “dopaminergic neuron differentiation score” value in assay [2] (library: LOPAC) is inactive: 0.

On to `CON`, for which the neuronal differentiation score in assay [1] (library: Spectrum) was inactive: 0. In addition, the “dopaminergic neuron differentiation score” value in assay [2] (library: Spectrum) was inactive: 0.

In the case of `N=C(N)NC(=N)NCCc1ccccc1`, the neuronal differentiation score in assay [1] (library: Spectrum) was inactive: 0. In assay [2] (library: Spectrum), the “dopaminergic neuron differentiation score” value was inactive: 0.

Regarding `CCCCCc1c2c(cc(O)c1C(=O)O)OC(=O)c1c(cc(OC)cc1C(=O)CCCC)O2` [lobaric acid], the neuronal differentiation score in assay [1] (library: Natural) is inactive: 0. For the same compound, the “dopaminergic neuron differentiation score” value in assay [2] (library: Natural) was inactive: 0.

Turning to `CC12CC(=O)C3=C(CCCC3=O)N1CCc1ccccc12` (centres undefined), the neuronal differentiation score in assay [1] (library: Natural) was inactive: 0. Besides, the “dopaminergic neuron differentiation score” value in assay [2] (library: Natural) is inactive: 0.

In the case of `Nc1nc(Cl)nc2c1ncn2[C@@H]1O[C@H](CO)[C@@H](O)[C@H]1O` [2-Chloroadenosine], the neuronal differentiation score in assay [1] (library: LOPAC) was inactive: -3. Also, the “dopaminergic neuron differentiation score” value in assay [2] (library: LOPAC) is inactive: 0.

With `NS(=O)(=O)c1cc2c(cc1Cl)NCNS2(=O)=O`, the neuronal differentiation score in assay [1] (library: Spectrum) is inactive: 0. The “dopaminergic neuron differentiation score” value in assay [2] (library: Spectrum) was inactive: 0.

In the case of `CC(CCCCC(=O)Nc1ccc(C(F)(F)F)cc1)NCCc1cnc[nH]1` (centres undefined) [HTMT dimaleate], the neuronal differentiation score in assay [1] (library: Tocriscreen) is inactive: 0. Moreover, the “dopaminergic neuron differentiation score” value in assay [2] (library: Tocriscreen) is inactive: 0.

As for `CCCCC[C@H](O)/C=C/[C@H]1[C@H](O)CC(=O)[C@@H]1C/C=C\CCCC(=O)O` [Prostaglandin E2], the neuronal differentiation score in assay [1] (library: Tocriscreen) was inactive: 0. In assay [2] (library: Tocriscreen), the “dopaminergic neuron differentiation score” value is inactive: 0.

On to `CCC(NC(C)C)C(O)c1ccc(O)c2[nH]c(=O)ccc12` (centres undefined) [Procaterol hydrochloride], for which the neuronal differentiation score in assay [1] (library: Tocriscreen) was inactive: 0. For the same compound, the “dopaminergic neuron differentiation score” value in assay [2] (library: Tocriscreen) is inactive: 0.

Turning to `O=C(O)/C=C/C(O)c1ccc(Cl)cc1` (centres undefined), in assay [1] (library: LOPAC), the neuronal differentiation score is inactive: 0. Further, in assay [2] (library: LOPAC), the “dopaminergic neuron differentiation score” value is inactive: 0.

`CCC(C)C(NC)C(=O)O` (centres undefined): the neuronal differentiation score in assay [1] (library: Spectrum) is inactive: 0. In addition, the “dopaminergic neuron differentiation score” value in assay [2] (library: Spectrum) is inactive: 0.

For `CN(C)CCCN1c2ccccc2CCc2ccccc21`, in assay [1] (library: Spectrum), the neuronal differentiation score was inactive: -1. In addition, the “dopaminergic neuron differentiation score” value in assay [2] (library: Spectrum) is inactive: 0.

Turning to `C[C@H]1C[C@H]2[C@@H]3CCC4=CC(=O)C=C[C@]4(C)[C@@]3(F)[C@@H](O)C[C@]2(C)[C@@]1(O)C(=O)COP(=O)(O)O`, the neuronal differentiation score in assay [1] (library: Spectrum) is inactive: 0. The “dopaminergic neuron differentiation score” value in assay [2] (library: Spectrum) is inactive: 0.

As to `CN[C@H]1CC[C@@H](c2ccc(Cl)c(Cl)c2)c2ccccc21` [Sertraline], in assay [1] (library: Prestwick), the neuronal differentiation score is inactive: 0. The “dopaminergic neuron differentiation score” value in assay [2] (library: Prestwick) was inactive: 0.
